T1: mycACBD5 (human) (UniProt Q5T8D3)
T1 sequence: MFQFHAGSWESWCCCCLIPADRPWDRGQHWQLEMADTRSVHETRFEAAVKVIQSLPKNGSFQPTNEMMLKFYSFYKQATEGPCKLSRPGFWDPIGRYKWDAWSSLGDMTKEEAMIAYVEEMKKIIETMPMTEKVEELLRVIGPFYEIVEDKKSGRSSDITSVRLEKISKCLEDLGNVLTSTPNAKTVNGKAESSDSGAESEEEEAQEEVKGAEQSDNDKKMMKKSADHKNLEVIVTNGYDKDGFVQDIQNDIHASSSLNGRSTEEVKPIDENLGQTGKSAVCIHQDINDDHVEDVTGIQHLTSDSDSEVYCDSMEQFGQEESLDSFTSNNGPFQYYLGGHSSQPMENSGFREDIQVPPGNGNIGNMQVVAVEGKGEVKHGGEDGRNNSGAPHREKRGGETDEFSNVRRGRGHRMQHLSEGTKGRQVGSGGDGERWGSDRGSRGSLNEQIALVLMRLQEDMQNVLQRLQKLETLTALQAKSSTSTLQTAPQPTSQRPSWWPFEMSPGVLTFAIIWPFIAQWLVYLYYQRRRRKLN

Amino acid sequences for entries named in this document (tags omitted).
UniProt O95292: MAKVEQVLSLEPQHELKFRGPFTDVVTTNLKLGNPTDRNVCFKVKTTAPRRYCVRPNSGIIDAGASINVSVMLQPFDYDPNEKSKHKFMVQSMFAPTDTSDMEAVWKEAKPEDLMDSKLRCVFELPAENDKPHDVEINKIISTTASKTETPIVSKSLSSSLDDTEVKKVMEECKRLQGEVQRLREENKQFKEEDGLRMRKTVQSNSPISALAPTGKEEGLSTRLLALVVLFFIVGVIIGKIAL
UniProt O00429: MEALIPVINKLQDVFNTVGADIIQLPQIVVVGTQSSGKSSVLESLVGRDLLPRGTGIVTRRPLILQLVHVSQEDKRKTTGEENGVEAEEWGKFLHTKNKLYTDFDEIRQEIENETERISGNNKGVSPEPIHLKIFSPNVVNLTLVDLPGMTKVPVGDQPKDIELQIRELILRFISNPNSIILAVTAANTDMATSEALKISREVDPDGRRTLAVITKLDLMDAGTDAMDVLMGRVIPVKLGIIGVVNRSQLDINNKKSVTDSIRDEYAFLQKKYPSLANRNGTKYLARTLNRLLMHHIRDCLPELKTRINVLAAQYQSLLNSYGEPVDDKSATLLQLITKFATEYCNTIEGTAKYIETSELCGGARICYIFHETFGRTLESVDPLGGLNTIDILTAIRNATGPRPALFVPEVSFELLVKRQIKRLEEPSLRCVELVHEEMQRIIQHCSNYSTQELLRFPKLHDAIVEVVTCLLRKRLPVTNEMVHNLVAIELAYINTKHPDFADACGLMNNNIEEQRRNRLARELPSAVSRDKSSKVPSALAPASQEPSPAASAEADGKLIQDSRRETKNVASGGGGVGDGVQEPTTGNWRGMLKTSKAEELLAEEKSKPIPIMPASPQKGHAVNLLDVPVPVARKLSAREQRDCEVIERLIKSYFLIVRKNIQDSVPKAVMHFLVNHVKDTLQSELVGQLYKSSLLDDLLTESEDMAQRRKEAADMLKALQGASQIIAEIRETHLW

T2: mycPEX11b (human) (UniProt O96011)
T2 sequence: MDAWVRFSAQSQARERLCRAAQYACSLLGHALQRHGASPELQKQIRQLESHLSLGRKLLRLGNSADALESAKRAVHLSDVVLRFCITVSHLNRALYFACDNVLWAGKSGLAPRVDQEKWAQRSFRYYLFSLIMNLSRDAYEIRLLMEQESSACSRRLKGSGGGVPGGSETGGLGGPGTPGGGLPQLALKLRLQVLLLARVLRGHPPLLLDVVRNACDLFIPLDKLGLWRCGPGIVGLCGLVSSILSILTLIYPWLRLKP

B1: mycPEX11b (protein, UniProt O96011 1-259)
chain: T2 sequence
B2: mCherry-MFF (protein, UniProt Q9GZY8 1-342)
chain: MSKGTSSDTSLGRVSRAAFPSPTAAEMAEISRIQYEMEYTEGISQRMRVPEKLKVAPPNADLEQGFQEGVPNASVIMQVPERIVVAGNNEDVSFSRPADLDLIQSTPFKPLALKTPPRVLTLSERPLDFLDLERPPTTPQNEEIRAVGRLKRERSMSENAVRQNGQLVRNDSLWHRSDSAPRNKISRFQAPISAPEYTVTPSPQQARVCPPHMLPEDGANLSSARGILSLIQSSTRRAYQQILDVLDENRRPVLRGGSAAATSNPHHDNVRYGISNIDTTIEGTSDDLTVVDAASLRRQIIKLNRRLQLLEEENKERAKREMVMYSITVAFWLLNSWLWFRR
B3: mCherry-GDAP1 (protein, UniProt Q8TB36 1-358)
chain: MAERQEEQRGSPPLRAEGKADAEVKLILYHWTHSFSSQKVRLVIAEKALKCEEHDVSLPLSEHNEPWFMRLNSTGEVPVLIHGENIICEATQIIDYLEQTFLDERTPRLMPDKESMYYPRVQHYRELLDSLPMDAYTHGCILHPELTVDSMIPAYATTRIRSQIGNTESELKKLAEENPDLQEAYIAKQKRLKSKLLDHDNVKYLKKILDELEKVLDQVETELQRRNEETPEEGQQPWLCGESFTLADVSLAVTLHRLKFLGFARRNWGNGKRPNLETYYERVLKRKTFNKVLGHVNNILISAVLPTAFRVAKKRAPKVLGTTLVVGLLAGVGYFAFMLFRKRLGSMILAFRPRPNYF
B4: mCherry-PEX19 (protein, UniProt P40855 1-299)
chain: MAAAEEGCSVGAEADRELEELLESALDDFDKAKPSPAPPSTTTAPDASGPQKRSPGDTAKDALFASQEKFFQELFDSELASQATAEFEKAMKELAEEEPHLVEQFQKLSEAAGRVGSDMTSQQEFTSCLKETLSGLAKNATDLQNSSMSEEELTKAMEGLGMDEGDGEGNILPIMQSIMQNLLSKDVLYPSLKEITEKYPEWLQSHRESLPPEQFEKYQEQHSVMCKICEQFEAETPTDSETTQKARFEMVLDLMQQLQDLGHPPKELAGEMPPGLNFDLDALNLSGPPGASGEQCLIM
B5: mCherry-PEX11G (protein, UniProt Q96HA9 1-241)
chain: MASLSGLASALESYRGRDRLIRVLGYCCQLVGGVLVEQCPARSEVGTRLLVVSTQLSHCRTILRLFDDLAMFVYTKQYGLGAQEEDAFVRCVSVLGNLADQLYYPCEHVAWAADARVLHVDSSRWWTLSTTLWALSLLLGVARSLWMLLKLRQRLRSPTAPFTSPLPRGKRRAMEAQMQSEALSLLSNLADLANAVHWLPRGVLWAGRFPPWLVGLMGTISSILSMYQAARAGGQAEATTP
B6: mCherry-PEX11A (protein, UniProt O75192 1-247)
chain: MDAFTRFTNQTQGRDRLFRATQYTCMLLRYLLEPKAGKEKVVMKLKKLESSVSTGRKWFRLGNVVHAIQATEQSIHATDLVPRLCLTLANLNRVIYFICDTILWVRSVGLTSGINKEKWRTRAAHHYYYSLLLSLVRDLYEISLQMKRVTCDRAKKEKSASQDPLWFSVAEEETEWLQSFLLLLFRSLKQHPPLLLDTVKNLCDILNPLDQLGIYKSNPGIIGLGGLVSSIAGMITVAYPQMKLKTR

No constants are given. Whether binding was seen depends on the method and setting. Binding seen in cells or lysates may run through a third protein. Some entries that bind do so weakly or less than the wild type. Tags and fused reporters may be left off the sequences shown.

One assay addresses T1, mycACBD5 (human). In words: co-IP.
In the case of GFP-VAPB (from UniProt O95292 1-243), the binding entry is “binds”.

A further assay deals with T2, mycPEX11b (human). Briefly: co-IP.
“mCherry-DNM1L (from UniProt O00429 1-736)”: the binding entry was “binds”.
Consider B1, for which the binding result is on record as “binds”.
Regarding B2, the binding entry is “binds”.
Turning to B3, the binding entry is “binds”.
Same read-out and setting: for B4 the value was “binds”; for B5, “binds”.
The same measure, in the same setting: for B6 the value was “binds”.

Values taken from doi:10.1101/2025.01.21.634043.
